Laboratory results: PubChem BioAssay AID540256 (National Center for Advancing Translational Sciences (NCATS), 2011)
About 3,700 (1.2%) of roughly 300,000 compounds were called active. The shares of active, inactive and inconclusive entries below differ from those in the screen. Calls come from the whole dose curve; tested in HEK293 cells. Where the call is inconclusive, the potency comes from a doubtful curve fit.

Experiment: qHTS for Inhibitors of binding or entry into cells for Lassa Virus; note: nearly all actives have a fitted effect of over 50% in size
Settings: Lassa virus pseudotype entry inhibition, cell reporter; activity change, negative = inhibition: at 37.9 µM (top of the series) unless noted
% is set by controls: 0 for no effect and ±100 for the full control effect; potency is the fitted concentration of half-maximal effect.

SMILES | activity change, negative = inhibition | Potency
O=C(N/N=C/C=C\c1ccco1)c1cccs1 | inactive: -10.2% [at 46.1 µM] | 
O=C(COC(=O)c1cc(=O)[nH]c2ccccc12)Nc1nc(-c2cccc(Br)c2)cs1 |  | inconclusive: 0.731 µM [activator, full curve, poor fit]
Cc1ccc(Cl)cc1N(C)C(=O)c1cc2ccc3cccnc3c2[nH]1 |  | inconclusive: 15.8 µM [inhibitor, single point]
CCOC(=O)c1c(NC(C)=O)sc2c(OCC(O)CN(CC)CC)c(Br)ccc12 (configuration not stated) |  | active: 2.51 µM
CCS(=O)(=O)c1ccc(OC)c(Nc2ncc(-c3cccc(-c4ccccc4F)c3)o2)c1 |  | inconclusive: 15.8 µM [inhibitor, single point]
CCCn1cnc2cc(NC(=O)c3cccs3)ccc21 |  | inconclusive: 2.82 µM [activator, partial curve, poor fit]
CNC(=O)COC(=O)c1ccc(-c2nc3ccccc3s2)s1 |  | inconclusive: 0.501 µM [inhibitor, full curve, poor fit]
Cc1nc2sc3c(c2c2nnc(SCC(=O)NCc4ccco4)n12)CCCC3 | inactive: -4.1% | 
CC(CCc1ccccc1)NC(=O)c1cccs1 (configuration not stated) | inactive: -4.52% | 
CN(c1cccc(NC(=O)CSc2ccc(Cl)cc2)c1)S(C)(=O)=O |  | inconclusive: 23.1 µM [inhibitor, single point]
COc1ccc(CC(=O)Nc2cccc(-c3ccc4nnc(C)n4n3)c2)cc1OC |  | inconclusive: 35.5 µM [inhibitor, single point]
Cc1ccc(C)c2sc(N3CCN(C(=O)c4ccc([N+](=O)[O-])o4)CC3)nc12 |  | inconclusive: 17.8 µM [inhibitor, partial curve, poor fit]
O=C(CNC(=O)C1CCCCC1)NNC(=O)c1ccc(Cl)cc1Cl |  | inconclusive: 10 µM [activator, partial curve, poor fit]
CCOC(=O)c1cccc(NC(=O)C2CCN(S(=O)(=O)c3cccs3)CC2)c1 |  | inconclusive: 32.6 µM [inhibitor, single point]
CCOc1ccccc1CNC(=O)CN1C(=O)C2CCCCN2c2ccc(C(=O)N(C)C)cc21 (configuration not stated) | inactive: -2.58% [at 46.1 µM] | 
CCOCCCN(C(=O)c1snc(C(N)=O)c1N)C(C(=O)NC1CCCC1)c1ccc(O)c(OC)c1 (configuration not stated) |  | inconclusive: 7.08 µM [inhibitor, partial curve, poor fit]
O=C(CSc1nc2cc([N+](=O)[O-])ccc2n1-c1ccccc1)NCc1ccc2c(c1)OCO2 |  | inconclusive: 35.5 µM [inhibitor, single point]
CN(C)c1ccc(NC(=S)N(CCc2ccccc2)C2CC(=O)N(c3c(Cl)cccc3Cl)C2=O)cc1 (configuration not stated) |  | active: 3.55 µM
COc1ccccc1N(CC(=O)NCCc1ccccc1)C(=O)CCC(=O)Nc1ccccn1 |  | inconclusive: 10 µM [inhibitor, partial curve, poor fit]
Cc1nn(-c2ccccc2)c(C)c1/C=N/NC(=O)c1cc(-c2ccc(Br)s2)[nH]n1 |  | active: 6.51 µM
O=C1NC2=C(CCc3ccccc32)C(c2ccc(Br)cc2)N1 (configuration not stated) |  | inconclusive: 14.1 µM [inhibitor, partial curve, poor fit]
COc1ccc(N2CCN(CC(=O)NCc3ccc(Cl)cc3)CC2)cc1 |  | inconclusive: 7.94 µM [inhibitor, partial curve, poor fit]
Cc1ccc(S(=O)(=O)N2CCN(c3ccnc4cc(Cl)ccc34)CC2)cc1C | inactive: -1.71% [at 46.1 µM] | 

SMILES | activity change, negative = inhibition | Potency
COC(=O)Cc1ccc(NC(=O)c2ccc(C(C)(C)C)cc2)cc1 |  | active: 6.51 µM
CCOC(=O)c1cnc(-n2nc(C)cc2C)nc1N(C)C | inactive: 16% | 
CCOC(=O)CSc1snnc1C | inactive: 29.5% | 
CCN(c1cccc(C(F)(F)F)c1)S(=O)(=O)c1ccc2c(c1)CCN2C(C)=O |  | active: 17.8 µM
O=C(CSc1ccc2nnc(-c3ccccn3)n2n1)Nc1ccc(F)cc1F |  | inconclusive: 1.12 µM [inhibitor, full curve, poor fit]
CCN(CC)C(=O)C1CCCN(c2ncnc3c2nc2n3CCCCC2)C1 (configuration not stated) |  | inconclusive: 8.91 µM [inhibitor, partial curve, poor fit]
Clc1cc(Sc2ccc(Br)cc2)nnc1-c1ccccc1 | inactive: -26.9% | 
C/C(=N\NC(=S)NC1CCCCC1)c1ccc(OC(F)F)cc1OC(F)F |  | inconclusive: 25.1 µM [inhibitor, single point]
CCCOc1ccc(C(=O)Nc2ccc(S(=O)(=O)N3CCN(C)CC3)cc2)cc1 |  | inconclusive: 0.794 µM [inhibitor, single point]
COCCn1c(CNC(=O)c2cc(OC)c(OC)c(OC)c2)nc2cccnc21 |  | inconclusive: 1.78 µM [activator, single point]
CCC(C)c1ccc(S(=O)(=O)N2CCN(C(C)C(=O)NC3CCCC3)CC2)cc1 (configuration not stated) |  | active: 2.82 µM
Cc1cc2ncn(C(=O)N3CCCCC3)c2cc1C |  | inconclusive: 29.1 µM [activator, single point]
O=[N+]([O-])c1cccc(C(=Nc2cccc(Cl)c2)NO)c1 | inactive: 0.498% | 
CCOc1ccc(OCC)c(NC(=O)CCn2c(=O)oc3ccccc32)c1 |  | inconclusive: 0.058 µM [inhibitor, partial curve, poor fit]
CCOC(=O)c1sc(NC(=O)Nc2ccccc2F)nc1C |  | inconclusive: 2.51 µM [inhibitor, full curve, poor fit]
CC(C)(C)NC(=O)CN(C(=O)CNS(=O)(=O)c1ccc(Cl)cc1)c1ccc2c(c1)OCCO2 | inactive: -5.04% | 
Cn1c(CNC(=O)Nc2ccccc2Cl)nnc1SCc1ccccc1 |  | inconclusive: 5.17 µM [activator, single point]
Cc1ccccc1CN1C(=O)C(O)(CC(=O)c2cccc(Br)c2)c2ccccc21 (configuration not stated) | inactive: -23.7% [at 46.1 µM] | 
COc1ccc([C@@H]2Sc3cc(OC)ccc3N(CCN(C(C)C)C(C)C)C(=O)[C@H]2OC(C)=O)cc1 |  | inconclusive: 20.6 µM [inhibitor, single point]
CCn1cc([N+](=O)[O-])c(C(=O)N2N=C(c3ccccc3)CC2c2ccc([N+](=O)[O-])cc2)n1 (configuration not stated) | inactive: 8.27% | 
O=C(O)c1cccc([N+](=O)[O-])c1C(=O)Nc1cccc2ccccc12 |  | inconclusive: 0.708 µM [activator, full curve, poor fit]
CN(Cc1ccc(F)cc1)C(=O)c1cccc(S(=O)(=O)N2CCN(Cc3ccccc3)CC2)c1 |  | inconclusive: 10 µM [inhibitor, partial curve, poor fit]
Cc1cc(NS(=O)(=O)c2ccccc2)n(-c2ccccc2)n1 | inactive: -10.1% | 

5 neighbouring entries already listed:
SMILES | activity change, negative = inhibition | Potency
CC(CCc1ccccc1)NC(=O)c1cccs1 (configuration not stated) | inactive: -4.52% | 
CN(c1cccc(NC(=O)CSc2ccc(Cl)cc2)c1)S(C)(=O)=O |  | inconclusive: 23.1 µM [inhibitor, single point]
COc1ccc(CC(=O)Nc2cccc(-c3ccc4nnc(C)n4n3)c2)cc1OC |  | inconclusive: 35.5 µM [inhibitor, single point]
Cc1ccc(C)c2sc(N3CCN(C(=O)c4ccc([N+](=O)[O-])o4)CC3)nc12 |  | inconclusive: 17.8 µM [inhibitor, partial curve, poor fit]
O=C(CNC(=O)C1CCCCC1)NNC(=O)c1ccc(Cl)cc1Cl |  | inconclusive: 10 µM [activator, partial curve, poor fit]

(next part)

SMILES | activity change, negative = inhibition | Potency
O=C(Cc1ccc(-c2ccccc2)cc1)Nc1ccccn1 |  | inconclusive: 35.5 µM [inhibitor, single point]
CCc1ccccc1NC(=O)c1ccc2[nH]c(C)c(C)c2c1 |  | inconclusive: 0.562 µM [activator, full curve, poor fit]
Cc1ccc(CNC(=O)C(=O)NCCCn2ccnc2)cc1 | inactive: -23.2% | 
COc1ccc(-c2cc(-c3cccs3)c(C#N)c(SCC(=O)NCc3ccco3)n2)cc1 |  | inconclusive: 29.1 µM [inhibitor, single point]
Cc1ccc(C(=O)Nc2ccc(N3CCN(S(C)(=O)=O)CC3)cc2)cc1C |  | inconclusive: 35.5 µM [activator, single point]
COc1ccc(Nc2cc(C)nc3ccc(OC)cc23)cc1 |  | inconclusive: 5.01 µM [inhibitor, single point]
O=C(CN1CCc2cc3c(cc2C1)OCCCO3)Nc1cccc(Br)c1 |  | inconclusive: 20 µM [inhibitor, partial curve, poor fit]
CCc1ccc2c(c1)C1(C(=O)N2)N2CCCC2C(C(=O)c2ccc3ccccc3c2)C12C(=O)Nc1ccccc12 (configuration not stated) |  | inconclusive: 20 µM [inhibitor, single point]
Cc1ccc(NC(=O)C(C)OC(=O)Cn2[nH]c(=O)c3ccccc3c2=O)cc1 (configuration not stated) |  | inconclusive: 10 µM [activator, partial curve]
Cc1cc(O)c(CN2CCN(c3ccc(F)cc3)CC2)c2oc(=O)cc(C)c12 | inactive: 1.92% [at 46.1 µM] | 
COCC1CCN(C(=O)c2cc(COc3ccc4c(c3)CCCC4)on2)C1 (configuration not stated) |  | inconclusive: 35.5 µM [inhibitor, single point]
Cc1cc(=O)n(C)c(=O)n1CCCCCCOc1cccc([N+](=O)[O-])c1 | inactive: 9.66% | 
COc1ccc(Br)cc1CNC(=O)c1ccc(-n2c(C)cc3c2CCC(C)C3)cc1 (configuration not stated) |  | inconclusive: 12.6 µM [inhibitor, partial curve, poor fit]
COc1cccc(C2=CC(c3ccccc3)n3nnnc3N2)c1 (configuration not stated) |  | inconclusive: 2.06 µM [inhibitor, partial curve, poor fit]
CC1CCC2(CC1)NC(=O)N(CC(=O)N1CCOCC1)C2=O (configuration not stated) | inactive: 9% [at 46.1 µM] | 
N=c1oc2cc(O)ccc2cc1C(=O)Nc1ccc(Br)cc1 |  | inconclusive: 20 µM [inhibitor, single point]
CCOC(=O)c1cncc(C(=O)O)c1 | inactive: -12.5% | 
CCCN(C(=O)Cn1nc(Cc2ccncc2)c2ccccc2c1=O)c1ccccc1C |  | inconclusive: 7.94 µM [inhibitor, partial curve, poor fit]
COc1ccc(OCC(=O)N2CCN(c3nnc(-c4ccc(C)cc4)c4ccccc34)CC2)cc1 |  | inconclusive: 12.6 µM [inhibitor, partial curve]
O=[N+]([O-])c1ccc(N/N=C2/CCCCC2c2ccccn2)cc1 (configuration not stated) |  | inconclusive: 2.82 µM [inhibitor, single point]
COc1cccc(C(C)NC(=O)Nc2cc(Cl)ccc2OC)c1 (configuration not stated) | inactive: 12.4% | 
